# Data published in the RNAGym collection of RNA variant scans (doi:10.1126/science.aae0568).
# Variants at the floor of the assay are shown more often than the library holds them.
# B1: tRNA (parent)
# chain: GUUCCGUUGGCGUAAUGGUAACGCGUCUCCCUCCUAAGGAGAAGACUGCGGGUUCGAGUCCCGUACGGAACG
# Variants of: B1
# Experiment: yeast fitness relative to wild type (ratio to wild type); higher = fitter; tRNA-Arg(CCU), competitive growth, 37 C, YPD
# Summary of the method: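 Genotype frequency changes were the basis for Darwinian fitness relative to wild type. The frequencies came from 100-nucleotide paired-end sequencing of gene amplicons from the start population and each end population of pooled yeast strains with tRNA-Arg(CCU) gene variants at the native locus. Competition ran in YPD at 37°C for 24 hours in six replicates, genotypes needed ≥ 100 starting reads, and estimates < 0.5 were set to 0.5.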
row,Variant,yeast fitness
1,A21G U26C U47G G50C C66A,≤ 0.5
2,G10A U19A A42G C49U U64A,≤ 0.5
3,U7C A65G G68U,≤ 0.5
4,C4G G6C G18A C24U C27A U35C G41A U47C,≤ 0.5
5,C4G U8C C24G C30G C49A,≤ 0.5
6,C5A A20C C22A A36C,≤ 0.5
7,C22G C29A U53A C66U,≤ 0.5
8,G9C U16C C27G C29U U54C,≤ 0.5
9,A15C U47G G52A,≤ 0.5
10,U7A A21G C61G C66G,≤ 0.5
11,G41A U53C A57C,≤ 0.5
12,G9A A21U C31G G52C A70U,≤ 0.5
13,C4U C30A C62U,0.792
14,U13A A40G A42G A57C,≤ 0.5
15,G25C A37U,0.56
16,C11G G68C,0.597
17,U7G A43G C46G,≤ 0.5
18,C31G G41C G50C C60U,≤ 0.5
19,U8C A37G C55G G68C,≤ 0.5
20,C31A G56A A65G C66A G68C,0.562
21,C31G A42C G56A C61G,≤ 0.5

row,Variant,yeast fitness
1,G9C C34G U64A,≤ 0.5
2,G9C C11A A15U C24G C33G G38C A43G C60U G63A,≤ 0.5
3,C11A A20G G39A G51A U53A,≤ 0.5
4,C24G U53G A57G,0.545
5,U19G C29U G39C A42U G67A A69C,≤ 0.5
6,G6C C33G G39C,≤ 0.5
7,U16A C30A C55U A70C,≤ 0.5
8,C29A C30U C46U G58C,≤ 0.5
9,G6U C29U C62U A70U,≤ 0.5
10,G12C C22A C46A C60G,≤ 0.5
11,G10A A20C G38A G41A C55G A69C,≤ 0.5
12,U19C C24U,0.969
13,A36C A57U,0.509
14,G17C C34G A37C C62A G67A,≤ 0.5
15,U7G A15C A40G,≤ 0.5
16,C27U A36C G67A A69C,≤ 0.5
17,A14G C31A C46G A57U A65G,≤ 0.5
18,A15U C33G C49A C60G,≤ 0.5
19,C5U A15G C30U A40U A70C,≤ 0.5
20,G6A C29G U32C A69C,≤ 0.5
21,A20G C27A C46A C62G G67C,≤ 0.5

row,Variant,yeast fitness
1,U3A G9C,0.567
2,C11G C29A U35C A43C,≤ 0.5
3,U47A A57G,0.923
4,U3G C11U U64C,≤ 0.5
5,G6C A42C C49U C55U G68C,≤ 0.5
6,U19C C34U G38C U47C,≤ 0.5
7,G9A A21U A36G A40C G56C,≤ 0.5
8,C27G U32C C62U,0.62
9,G10C C22G C29A,≤ 0.5
10,U8G C22G C24G C30G A36G A65G,≤ 0.5
11,C31A A43G A45C U64G,≤ 0.5
12,A14U A20G C31G U53C A69U,≤ 0.5
13,A20U U54A A70G,≤ 0.5
14,G10A C11G A36C C55G,≤ 0.5
15,C4U U26A A37C C49U G56A,≤ 0.5
16,G10A A40G C55U,≤ 0.5
17,G12A G25C C49U G51A,≤ 0.5
18,C4U A20U,0.988
19,U2G G17C C33U U47A A69U,≤ 0.5
20,C11G C22A C31A,≤ 0.5
21,G10A C24U C29U C30G,≤ 0.5

row,Variant,yeast fitness
1,U3A C24G A57U,≤ 0.5
2,U3C U16C A37U,≤ 0.5
3,C11A C27U,0.646
4,A36C C60G G67A,≤ 0.5
5,C5U A42C G67U,0.69
6,C11U A42C A69U,0.773
7,G12A A21U C22U,≤ 0.5
8,G38A U59G A69G,≤ 0.5
9,C34G G44C G48C A70C,≤ 0.5
10,C22U C34G A42U G48A,≤ 0.5
11,A14C A42G A57U,≤ 0.5
12,C4U G6A U13C U28C U59A C61A C66U G68C,≤ 0.5
13,U8G C24U C29G C31A A45G C61U A65C G67A G68A,≤ 0.5
14,A21U C27G A45C A69U,≤ 0.5
15,G10A A21G C29A A69C,≤ 0.5
16,C4G G23C C66A,≤ 0.5
17,C4U C5G C29G C31G A37C U54A,≤ 0.5
18,G6A G9C C11G C34U G48A,≤ 0.5
19,G23A A45U C60U A70G,≤ 0.5
20,C5G A21C C24U,≤ 0.5
